Here are results for 37 targets from the supplement of paper PMC12819154, “High-throughput peptide-centric local stability assay extends protein–ligand identification to membrane proteins, tissues and bacteria” (Nature Structural & Molecular Biology, 2025).

By UniProt entry, the sequences of proteins in these tests, tags left out. Where a name states a change or a piece, a line headed by the entry shows the natural chain unless it says otherwise.
UniProt Q8K2Q5: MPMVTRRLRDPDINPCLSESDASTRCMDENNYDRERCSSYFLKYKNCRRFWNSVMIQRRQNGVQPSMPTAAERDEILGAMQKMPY
UniProt Q8K1S5: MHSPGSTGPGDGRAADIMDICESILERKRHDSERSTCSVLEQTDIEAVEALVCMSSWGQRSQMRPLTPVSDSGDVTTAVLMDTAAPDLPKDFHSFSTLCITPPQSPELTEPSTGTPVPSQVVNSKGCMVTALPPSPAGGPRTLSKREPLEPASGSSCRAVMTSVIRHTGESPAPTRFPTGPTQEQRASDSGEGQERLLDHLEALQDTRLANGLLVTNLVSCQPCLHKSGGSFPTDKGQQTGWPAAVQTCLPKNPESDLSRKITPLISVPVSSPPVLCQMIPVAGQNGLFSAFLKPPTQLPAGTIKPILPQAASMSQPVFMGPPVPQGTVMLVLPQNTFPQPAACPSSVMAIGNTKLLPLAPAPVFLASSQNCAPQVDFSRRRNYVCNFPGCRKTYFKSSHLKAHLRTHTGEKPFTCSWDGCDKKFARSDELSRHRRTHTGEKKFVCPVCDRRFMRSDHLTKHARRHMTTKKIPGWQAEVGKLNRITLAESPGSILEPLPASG
UniProt Q8K2P1: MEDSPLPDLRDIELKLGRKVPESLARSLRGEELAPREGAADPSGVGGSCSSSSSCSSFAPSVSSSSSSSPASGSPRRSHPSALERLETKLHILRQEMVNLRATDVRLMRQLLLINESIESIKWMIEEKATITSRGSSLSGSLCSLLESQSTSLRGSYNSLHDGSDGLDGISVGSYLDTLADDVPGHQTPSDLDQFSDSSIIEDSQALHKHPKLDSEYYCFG
UniProt Q8R1I1: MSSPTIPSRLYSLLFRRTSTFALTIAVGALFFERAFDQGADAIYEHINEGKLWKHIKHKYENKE
UniProt Q8QZS3: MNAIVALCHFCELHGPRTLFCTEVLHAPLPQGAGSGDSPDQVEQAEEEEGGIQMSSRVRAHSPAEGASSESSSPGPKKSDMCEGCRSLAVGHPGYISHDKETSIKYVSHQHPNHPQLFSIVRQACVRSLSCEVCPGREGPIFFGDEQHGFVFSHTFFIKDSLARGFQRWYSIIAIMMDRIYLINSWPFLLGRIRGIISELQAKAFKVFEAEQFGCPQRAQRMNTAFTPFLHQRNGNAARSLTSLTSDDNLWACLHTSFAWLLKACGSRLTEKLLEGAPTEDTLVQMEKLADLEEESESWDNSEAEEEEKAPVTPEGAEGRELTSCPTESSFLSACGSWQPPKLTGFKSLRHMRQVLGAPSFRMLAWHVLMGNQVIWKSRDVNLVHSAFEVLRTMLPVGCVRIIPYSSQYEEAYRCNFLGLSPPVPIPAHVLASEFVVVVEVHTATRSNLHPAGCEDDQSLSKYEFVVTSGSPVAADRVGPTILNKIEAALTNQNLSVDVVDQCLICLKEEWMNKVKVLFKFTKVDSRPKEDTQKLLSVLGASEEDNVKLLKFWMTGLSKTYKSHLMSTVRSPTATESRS
UniProt Q8K1L5: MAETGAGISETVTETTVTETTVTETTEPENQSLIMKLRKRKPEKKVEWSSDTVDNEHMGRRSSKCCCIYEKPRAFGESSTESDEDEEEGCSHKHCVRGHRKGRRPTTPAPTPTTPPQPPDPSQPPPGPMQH
UniProt Q8K2T4: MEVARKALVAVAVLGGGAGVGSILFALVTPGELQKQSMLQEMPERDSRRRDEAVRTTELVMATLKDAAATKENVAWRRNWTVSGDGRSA
UniProt Q8QZR3: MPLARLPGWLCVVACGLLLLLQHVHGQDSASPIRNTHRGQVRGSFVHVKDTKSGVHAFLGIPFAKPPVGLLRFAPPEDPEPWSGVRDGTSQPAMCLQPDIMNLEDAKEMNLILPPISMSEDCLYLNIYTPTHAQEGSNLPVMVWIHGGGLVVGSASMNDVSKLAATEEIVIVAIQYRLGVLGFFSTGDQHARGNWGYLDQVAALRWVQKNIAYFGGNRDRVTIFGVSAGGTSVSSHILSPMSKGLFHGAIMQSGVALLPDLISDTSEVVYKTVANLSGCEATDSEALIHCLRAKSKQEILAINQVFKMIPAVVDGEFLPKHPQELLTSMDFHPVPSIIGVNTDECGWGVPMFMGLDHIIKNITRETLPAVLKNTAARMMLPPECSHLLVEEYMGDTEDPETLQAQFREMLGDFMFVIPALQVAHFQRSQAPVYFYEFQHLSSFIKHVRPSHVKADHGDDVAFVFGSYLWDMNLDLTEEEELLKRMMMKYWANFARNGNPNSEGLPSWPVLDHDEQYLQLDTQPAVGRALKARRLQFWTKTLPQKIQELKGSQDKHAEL
UniProt Q8K394: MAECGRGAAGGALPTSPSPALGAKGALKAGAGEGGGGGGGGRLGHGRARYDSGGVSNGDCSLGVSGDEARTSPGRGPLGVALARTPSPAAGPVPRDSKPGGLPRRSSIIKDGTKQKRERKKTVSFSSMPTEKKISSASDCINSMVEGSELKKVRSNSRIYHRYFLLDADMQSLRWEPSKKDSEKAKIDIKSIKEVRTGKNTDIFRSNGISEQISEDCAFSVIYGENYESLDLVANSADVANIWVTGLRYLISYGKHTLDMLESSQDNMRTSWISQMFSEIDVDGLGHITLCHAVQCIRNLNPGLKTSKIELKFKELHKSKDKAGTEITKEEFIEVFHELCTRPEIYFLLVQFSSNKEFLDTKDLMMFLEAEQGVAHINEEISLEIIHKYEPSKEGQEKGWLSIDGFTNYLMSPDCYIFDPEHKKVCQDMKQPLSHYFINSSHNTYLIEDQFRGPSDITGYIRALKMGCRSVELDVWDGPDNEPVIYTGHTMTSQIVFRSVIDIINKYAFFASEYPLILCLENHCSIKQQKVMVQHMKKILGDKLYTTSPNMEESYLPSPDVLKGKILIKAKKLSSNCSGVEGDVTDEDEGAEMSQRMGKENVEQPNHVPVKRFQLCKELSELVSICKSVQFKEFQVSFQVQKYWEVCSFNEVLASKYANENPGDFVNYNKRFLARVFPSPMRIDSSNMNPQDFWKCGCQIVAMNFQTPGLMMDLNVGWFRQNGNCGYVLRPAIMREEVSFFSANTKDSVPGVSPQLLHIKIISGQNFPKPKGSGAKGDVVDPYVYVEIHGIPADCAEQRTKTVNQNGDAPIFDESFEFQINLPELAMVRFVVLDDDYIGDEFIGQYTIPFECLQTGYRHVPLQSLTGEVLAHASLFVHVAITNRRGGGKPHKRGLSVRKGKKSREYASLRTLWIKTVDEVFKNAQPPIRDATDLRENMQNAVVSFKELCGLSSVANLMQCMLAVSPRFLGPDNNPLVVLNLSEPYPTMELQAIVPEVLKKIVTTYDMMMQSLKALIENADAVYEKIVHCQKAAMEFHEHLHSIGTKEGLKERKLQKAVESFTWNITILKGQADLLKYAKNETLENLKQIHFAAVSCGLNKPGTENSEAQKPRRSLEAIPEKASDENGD
UniProt Q8K2C6: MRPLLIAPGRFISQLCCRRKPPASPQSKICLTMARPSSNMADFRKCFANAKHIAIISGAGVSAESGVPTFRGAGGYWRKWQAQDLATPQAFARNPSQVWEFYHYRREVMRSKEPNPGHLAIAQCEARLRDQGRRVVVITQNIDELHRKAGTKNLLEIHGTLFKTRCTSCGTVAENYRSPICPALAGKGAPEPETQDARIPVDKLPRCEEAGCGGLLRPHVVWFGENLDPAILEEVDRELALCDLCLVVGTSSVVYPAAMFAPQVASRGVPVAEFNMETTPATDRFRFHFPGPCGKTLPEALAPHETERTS
UniProt Q8R1X6: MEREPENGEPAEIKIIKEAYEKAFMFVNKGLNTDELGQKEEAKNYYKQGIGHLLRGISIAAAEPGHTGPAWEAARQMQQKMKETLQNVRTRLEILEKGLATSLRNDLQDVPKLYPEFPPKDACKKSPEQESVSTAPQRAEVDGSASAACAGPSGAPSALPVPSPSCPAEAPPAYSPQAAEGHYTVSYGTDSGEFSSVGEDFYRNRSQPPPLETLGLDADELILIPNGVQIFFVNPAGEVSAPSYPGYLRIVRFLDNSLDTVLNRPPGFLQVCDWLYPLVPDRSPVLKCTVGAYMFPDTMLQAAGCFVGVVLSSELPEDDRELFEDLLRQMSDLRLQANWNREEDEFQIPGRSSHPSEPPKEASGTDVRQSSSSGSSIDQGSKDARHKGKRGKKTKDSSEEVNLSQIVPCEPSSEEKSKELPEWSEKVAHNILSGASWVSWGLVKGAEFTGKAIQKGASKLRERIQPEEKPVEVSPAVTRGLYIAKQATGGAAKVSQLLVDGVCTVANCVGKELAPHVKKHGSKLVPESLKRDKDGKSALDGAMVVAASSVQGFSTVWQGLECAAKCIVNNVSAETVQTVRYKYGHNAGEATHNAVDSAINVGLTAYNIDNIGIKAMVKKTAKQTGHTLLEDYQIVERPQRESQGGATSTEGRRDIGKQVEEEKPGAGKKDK
UniProt Q8R1Q9: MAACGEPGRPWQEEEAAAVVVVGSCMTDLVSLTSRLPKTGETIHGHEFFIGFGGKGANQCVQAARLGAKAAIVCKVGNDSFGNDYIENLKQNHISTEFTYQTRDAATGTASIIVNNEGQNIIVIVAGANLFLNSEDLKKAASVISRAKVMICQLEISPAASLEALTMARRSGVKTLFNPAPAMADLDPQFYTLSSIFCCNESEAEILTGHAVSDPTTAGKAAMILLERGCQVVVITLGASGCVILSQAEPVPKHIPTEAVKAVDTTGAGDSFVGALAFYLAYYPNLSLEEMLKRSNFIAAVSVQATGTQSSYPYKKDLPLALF
UniProt Q8R0A0, whole entry: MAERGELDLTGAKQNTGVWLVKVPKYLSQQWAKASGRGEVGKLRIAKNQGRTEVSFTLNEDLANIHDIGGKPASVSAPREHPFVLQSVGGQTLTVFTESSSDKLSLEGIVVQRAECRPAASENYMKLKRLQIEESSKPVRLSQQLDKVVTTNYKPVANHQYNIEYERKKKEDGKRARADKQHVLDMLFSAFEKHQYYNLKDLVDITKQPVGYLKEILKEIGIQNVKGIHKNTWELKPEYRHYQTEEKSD
UniProt Q8K2L8: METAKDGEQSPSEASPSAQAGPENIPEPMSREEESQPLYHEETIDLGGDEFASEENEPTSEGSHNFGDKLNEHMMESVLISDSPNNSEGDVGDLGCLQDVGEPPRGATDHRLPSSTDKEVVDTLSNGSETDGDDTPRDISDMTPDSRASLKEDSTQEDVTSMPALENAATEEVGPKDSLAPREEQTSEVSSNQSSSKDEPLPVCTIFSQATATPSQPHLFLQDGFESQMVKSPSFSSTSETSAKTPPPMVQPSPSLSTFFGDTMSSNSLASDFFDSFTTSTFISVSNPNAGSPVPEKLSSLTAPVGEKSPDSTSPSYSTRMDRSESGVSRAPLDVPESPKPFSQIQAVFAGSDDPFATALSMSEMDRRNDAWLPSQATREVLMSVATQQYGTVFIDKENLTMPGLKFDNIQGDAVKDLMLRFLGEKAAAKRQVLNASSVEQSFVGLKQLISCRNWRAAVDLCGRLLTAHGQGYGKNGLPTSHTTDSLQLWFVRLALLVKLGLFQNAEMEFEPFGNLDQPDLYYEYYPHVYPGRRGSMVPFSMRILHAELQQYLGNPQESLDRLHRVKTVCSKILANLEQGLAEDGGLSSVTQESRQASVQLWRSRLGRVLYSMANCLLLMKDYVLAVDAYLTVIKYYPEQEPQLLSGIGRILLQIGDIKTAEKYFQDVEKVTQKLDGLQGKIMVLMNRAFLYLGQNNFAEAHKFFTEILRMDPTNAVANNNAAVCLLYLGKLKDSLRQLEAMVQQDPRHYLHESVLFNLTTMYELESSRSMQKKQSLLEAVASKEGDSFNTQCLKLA
UniProt Q8R180: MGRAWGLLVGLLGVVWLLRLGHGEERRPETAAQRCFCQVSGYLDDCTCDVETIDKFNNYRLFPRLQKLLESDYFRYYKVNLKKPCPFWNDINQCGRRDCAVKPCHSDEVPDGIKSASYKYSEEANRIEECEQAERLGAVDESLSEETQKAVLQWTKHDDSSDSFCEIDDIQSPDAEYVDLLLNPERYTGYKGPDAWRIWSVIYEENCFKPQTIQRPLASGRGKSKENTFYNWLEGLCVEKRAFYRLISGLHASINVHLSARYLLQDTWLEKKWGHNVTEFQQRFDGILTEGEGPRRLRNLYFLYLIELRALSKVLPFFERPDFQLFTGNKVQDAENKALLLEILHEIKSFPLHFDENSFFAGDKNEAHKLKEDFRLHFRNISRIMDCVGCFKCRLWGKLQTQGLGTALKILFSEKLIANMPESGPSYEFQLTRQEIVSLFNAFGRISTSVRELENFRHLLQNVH
UniProt Q8R1N4: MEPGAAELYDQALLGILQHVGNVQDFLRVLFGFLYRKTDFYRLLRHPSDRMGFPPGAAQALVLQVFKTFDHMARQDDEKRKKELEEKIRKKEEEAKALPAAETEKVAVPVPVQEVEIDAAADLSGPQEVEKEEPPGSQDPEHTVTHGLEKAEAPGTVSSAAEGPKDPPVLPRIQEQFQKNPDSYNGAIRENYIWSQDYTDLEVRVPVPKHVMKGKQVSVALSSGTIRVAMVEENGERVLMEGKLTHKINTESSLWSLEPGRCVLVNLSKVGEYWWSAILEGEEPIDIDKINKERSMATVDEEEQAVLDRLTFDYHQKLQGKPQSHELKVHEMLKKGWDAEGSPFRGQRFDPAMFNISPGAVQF

This is one part of the list. Most values lie at the level of the controls, where differences are scatter.

Compound in this test: CN[C@@H]1C[C@H]2O[C@@](C)([C@@H]1OC)n1c3ccccc3c3c4c(c5c6ccccc6n2c5c31)C(=O)NC4 [staurosporine]
Put plainly: log2 fold change of tryptic peptide abundance, ligand vs vehicle (limited proteolysis) (log2 ratio); higher = more trypsin-susceptible (destabilized). Conditions: ligand concentration: 20 uM; sample: mouse liver crude lysate; replicate design: treated separately.
For the target “UniProt Q8K1H1 (peptide sequence: QPGFASDYSISR, peptide start residue: 125)”, the log2 fold change worked out at 0.163. In the case of “UniProt Q8K2Q5 (peptide sequence: FWNSVMIQR, peptide start residue: 50)” it was 0.587. In the case of “UniProt Q8K4J0 (peptide sequence: ALPLDQPELR, peptide start residue: 419)” it was 0.113; in that of “UniProt Q8K1S5 (peptide sequence: LLDHLEALQDTR, peptide start residue: 197)”, -0.292; in that of “UniProt Q8K301 (peptide sequence: YFLEQAK, peptide start residue: 573)”, -0.129. As for “UniProt Q8R0W1 (peptide sequence: RFQNTLVVLHK, peptide start residue: 349)”, the figure is -0.417; as for “UniProt Q8R104 (peptide sequence: KFSLQDVAELLR, peptide start residue: 57)”, -0.296. “UniProt Q8K1M6 (peptide sequence: LLMHHIR, peptide start residue: 298)”: the log2 fold change amounted to 0.153. As for “UniProt Q8K1H7 (peptide sequence: SSSPASTSPPR, peptide start residue: 48)”, the log2 fold change was -0.232.

In the case of “UniProt Q8K2P1 (peptide sequence: QEMVNLR, peptide start residue: 95)”, the log2 fold change is -0.083. In the case of “UniProt Q8R1I1 (peptide sequence: LYSLLFR, peptide start residue: 10)” it was -0.302.

For “UniProt Q8QZS3 (peptide sequence: FWMTGLSK, peptide start residue: 552)”, the log2 fold change is -0.112. As for “UniProt Q8K1L5 (peptide sequence: VEWSSDTVDNEHMGRR, peptide start residue: 46)”, the figure is -0.394; as for “UniProt Q8K1E0 (peptide sequence: DVAIDMMDPR, peptide start residue: 242)”, -0.0681.

“UniProt Q8K2X2 (peptide sequence: ASSDGKPGGVFDHHVQTAVCDSR, peptide start residue: 2)”: the log2 fold change was 0.00592. In the case of “UniProt Q8R1U1 (peptide sequence: LGGLQFDKELR, peptide start residue: 699)” it was -0.425. In the case of “UniProt Q8K2T4 (peptide sequence: DAAATKENVAWR, peptide start residue: 66)” it was -0.322; in that of “UniProt Q8QZV7 (peptide sequence: SVLLEQPR, peptide start residue: 359)”, -0.577. As for “UniProt Q8QZR3 (peptide sequence: ETLPAVLK, peptide start residue: 365)”, the figure is -0.302; as for “UniProt Q8K114 (peptide sequence: HGFSDIKVEDTAK, peptide start residue: 601)”, -0.237; as for “UniProt Q8K394 (peptide sequence: HTLDMLESSQDNMR, peptide start residue: 256)”, 0.55. On to “UniProt Q8K2C6 (peptide sequence: GAPEPETQDAR, peptide start residue: 188)”, for which the log2 fold change amounted to 0.122.

On to “UniProt Q8R1X6 (peptide sequence: GLNTDELGQKEEAK, peptide start residue: 30)”, for which the log2 fold change was -0.79.

For the target “UniProt Q8K1R3 (peptide sequence: AVTVDLGHR, peptide start residue: 46)”, the log2 fold change was found to be 0.25. In the case of “UniProt Q8K2T8 (peptide sequence: TEYISTEFNR, peptide start residue: 134)” it was 0.118; in that of “UniProt Q8R1Q9 (peptide sequence: HIPTEAVK, peptide start residue: 254)”, -0.23. Regarding “UniProt Q8K4K6 (peptide sequence: VVFVGNFLR, peptide start residue: 492)”, the log2 fold change was -0.363.

On to “UniProt Q8QZR4 (peptide sequence: DRPAPYKCGIR, peptide start residue: 248)”, for which the log2 fold change was 0.124.

Turning to “UniProt Q8R107 (peptide sequence: AKETALAATEK, peptide start residue: 189)”, the log2 fold change turned out to be 0.754. As for “UniProt Q8R0A0 (peptide sequence: VVTTNYKPVANHQYNIEYER, peptide start residue: 148)”, the figure is 0.23. As for “UniProt Q8K1N1 (peptide sequence: SYFADKEEDSGK, peptide start residue: 173)”, the figure is 0.357; as for “UniProt Q8K2L8 (peptide sequence: ILLQIGDIK, peptide start residue: 651)”, 0.26; as for “UniProt Q8K4G1 (peptide sequence: AGPDLASCLDIDECRER, peptide start residue: 994)”, -0.32. Consider “UniProt Q8R180 (peptide sequence: YLLQDTWLEKK, peptide start residue: 262)”, for which the log2 fold change was found to be 0.295. As for “UniProt Q8QZY2 (peptide sequence: TLSLDPSGR, peptide start residue: 58)”, the figure is -0.101. In the case of “UniProt Q8R1N4 (peptide sequence: TFDHMAR, peptide start residue: 68)” it was -0.234.

“UniProt Q8R184 (peptide sequence: TKVPGYLLPRPADGGAR, peptide start residue: 22)”: the log2 fold change is -0.285.
